PMC6473003
Results are given in words; binding and its absence hold for the method and conditions named. For some assays here: In cells and extracts the contact can be indirect. Some entries that bind do so weakly or less than the wild type. For some assays here: Sequences can lack the tags named with a protein. One block for each molecule: values may come before it.

Amino acid sequences for entries named in this document (tags omitted).
UniProt P03372: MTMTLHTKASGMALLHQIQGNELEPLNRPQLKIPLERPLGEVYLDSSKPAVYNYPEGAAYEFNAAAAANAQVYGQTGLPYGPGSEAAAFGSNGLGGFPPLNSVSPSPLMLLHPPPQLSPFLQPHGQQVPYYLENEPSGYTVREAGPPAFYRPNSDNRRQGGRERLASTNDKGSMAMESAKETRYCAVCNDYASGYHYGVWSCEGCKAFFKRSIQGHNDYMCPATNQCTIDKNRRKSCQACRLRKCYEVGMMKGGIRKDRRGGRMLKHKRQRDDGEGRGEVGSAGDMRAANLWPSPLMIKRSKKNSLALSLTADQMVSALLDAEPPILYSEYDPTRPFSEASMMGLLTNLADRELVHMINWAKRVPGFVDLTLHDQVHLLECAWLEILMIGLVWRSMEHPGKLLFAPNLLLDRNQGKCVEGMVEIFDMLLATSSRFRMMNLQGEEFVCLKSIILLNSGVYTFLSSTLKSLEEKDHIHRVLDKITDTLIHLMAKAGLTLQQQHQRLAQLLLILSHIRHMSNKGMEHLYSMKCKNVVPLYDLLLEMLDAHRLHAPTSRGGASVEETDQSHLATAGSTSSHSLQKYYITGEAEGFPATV

Assays:
[1] = molecular target: T1, TRIM56 (endogenous, MCF-7 cells) (human (endogenous in MCF-7)) (UniProt Q9BRZ2); test: co-IP; cytoplasmic and nuclear fractions (subcellular protein fractionation kit), IP by TRIM56 antibody in both, ER alpha antibody for detection
T1 sequence: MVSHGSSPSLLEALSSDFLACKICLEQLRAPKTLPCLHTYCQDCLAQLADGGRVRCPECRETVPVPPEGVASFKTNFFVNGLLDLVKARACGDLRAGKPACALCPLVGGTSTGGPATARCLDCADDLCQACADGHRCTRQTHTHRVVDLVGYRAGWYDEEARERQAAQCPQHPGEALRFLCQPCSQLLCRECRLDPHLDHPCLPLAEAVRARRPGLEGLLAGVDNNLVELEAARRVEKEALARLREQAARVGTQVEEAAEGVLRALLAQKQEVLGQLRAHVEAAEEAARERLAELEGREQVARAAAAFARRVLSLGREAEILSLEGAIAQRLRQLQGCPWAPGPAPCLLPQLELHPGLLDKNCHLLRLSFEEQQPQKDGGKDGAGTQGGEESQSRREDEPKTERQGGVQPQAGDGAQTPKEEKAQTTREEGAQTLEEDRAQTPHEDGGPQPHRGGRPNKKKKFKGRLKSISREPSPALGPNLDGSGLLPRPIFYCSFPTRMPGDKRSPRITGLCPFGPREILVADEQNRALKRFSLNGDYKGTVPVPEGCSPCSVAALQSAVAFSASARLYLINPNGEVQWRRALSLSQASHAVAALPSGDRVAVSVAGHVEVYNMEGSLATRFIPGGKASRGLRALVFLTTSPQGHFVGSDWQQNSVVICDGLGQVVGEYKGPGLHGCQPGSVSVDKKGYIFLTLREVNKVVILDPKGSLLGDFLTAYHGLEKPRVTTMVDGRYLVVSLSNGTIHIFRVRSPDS

GST-TRIM56 = molecular target: T2, GST-TRIM56 (UniProt Q9BRZ2); test: pull-down; ER alpha recombinant protein incubated with GST-TRIM56 or GST protein, 4 °C, 30 min; resin washed with PBS with 30 mM imidazole and PBS with 0.01% Triton X-100; eluted with 250 mM imidazole; ER alpha detected by western blot; both purified
T2 sequence: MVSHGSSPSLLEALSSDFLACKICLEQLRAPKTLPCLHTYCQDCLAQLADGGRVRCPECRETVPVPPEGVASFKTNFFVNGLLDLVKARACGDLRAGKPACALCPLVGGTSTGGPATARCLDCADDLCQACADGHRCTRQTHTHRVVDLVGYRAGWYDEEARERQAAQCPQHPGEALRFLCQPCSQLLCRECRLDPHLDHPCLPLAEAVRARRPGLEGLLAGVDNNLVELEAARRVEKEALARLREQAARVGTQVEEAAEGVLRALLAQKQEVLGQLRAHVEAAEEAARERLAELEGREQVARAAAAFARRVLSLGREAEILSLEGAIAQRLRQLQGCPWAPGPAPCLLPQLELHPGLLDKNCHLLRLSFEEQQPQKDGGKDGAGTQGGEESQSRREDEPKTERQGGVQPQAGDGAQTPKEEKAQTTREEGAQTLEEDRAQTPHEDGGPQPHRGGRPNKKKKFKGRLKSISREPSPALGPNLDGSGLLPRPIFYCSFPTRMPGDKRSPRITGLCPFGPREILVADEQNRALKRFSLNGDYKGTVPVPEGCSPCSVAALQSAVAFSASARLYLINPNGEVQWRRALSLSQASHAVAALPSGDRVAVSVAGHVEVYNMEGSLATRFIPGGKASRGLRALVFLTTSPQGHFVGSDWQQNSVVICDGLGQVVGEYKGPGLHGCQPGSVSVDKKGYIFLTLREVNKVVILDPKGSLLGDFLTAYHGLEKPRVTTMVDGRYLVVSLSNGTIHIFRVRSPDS

Myc-TRIM56 = molecular target: T3, Myc-TRIM56 (UniProt Q9BRZ2); test: co-IP; HEK293 cells transfected with Myc-TRIM56 and HA-ER alpha full length or mutants, NP-40 lysis buffer after 24 h, IP with Myc antibody, blot with HA antibody
T3 sequence: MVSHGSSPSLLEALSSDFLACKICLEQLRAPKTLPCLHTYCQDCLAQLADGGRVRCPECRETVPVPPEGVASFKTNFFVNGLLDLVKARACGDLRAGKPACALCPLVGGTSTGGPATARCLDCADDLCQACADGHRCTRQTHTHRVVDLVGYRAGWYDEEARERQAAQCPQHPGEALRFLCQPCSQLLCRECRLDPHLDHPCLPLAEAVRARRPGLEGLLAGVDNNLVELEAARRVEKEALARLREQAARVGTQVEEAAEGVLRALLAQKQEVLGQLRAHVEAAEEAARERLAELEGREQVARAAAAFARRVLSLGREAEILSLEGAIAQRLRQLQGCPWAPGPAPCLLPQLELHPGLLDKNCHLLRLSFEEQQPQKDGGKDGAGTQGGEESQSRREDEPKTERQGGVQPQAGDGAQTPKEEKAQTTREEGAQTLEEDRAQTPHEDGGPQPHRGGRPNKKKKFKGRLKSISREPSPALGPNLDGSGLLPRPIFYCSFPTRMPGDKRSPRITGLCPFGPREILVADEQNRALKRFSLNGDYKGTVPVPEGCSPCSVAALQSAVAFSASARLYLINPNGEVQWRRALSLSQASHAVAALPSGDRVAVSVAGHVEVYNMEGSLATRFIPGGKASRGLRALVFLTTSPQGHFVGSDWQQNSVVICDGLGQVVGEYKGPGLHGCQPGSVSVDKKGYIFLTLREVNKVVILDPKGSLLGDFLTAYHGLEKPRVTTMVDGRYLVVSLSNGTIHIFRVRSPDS

[2] = molecular target: ER alpha (endogenous, MCF-7 cells) (human (endogenous in MCF-7)) (UniProt P03372); test: co-IP; endogenous proteins, MCF-7 total lysate (RIPA lysis buffer), precleared with rabbit IgG, immunoprecipitated with ER alpha antibody (D8H8) overnight, blot with anti-TRIM56; rabbit IgG as negative control
[3] = molecular target: HA-ER alpha full length (human) (UniProt P03372); test: co-IP; HEK293 cells transfected with HA-ER alpha and GFP-TRIM56 full length or mutants, NP-40 lysis buffer after 24 h, IP with HA antibody, blot with GFP antibody

Molecule: ER alpha (endogenous, MCF-7 cells) (from UniProt P03372 1-595)
binding [1]: binds

Molecule: ERα recombinant protein (Abcam Ab82606) (from UniProt P03372 1-595)
binding (GST-TRIM56): binds

B1: TRIM56 (endogenous, MCF-7 cells) (protein, UniProt Q9BRZ2 1-755)
chain: MVSHGSSPSLLEALSSDFLACKICLEQLRAPKTLPCLHTYCQDCLAQLADGGRVRCPECRETVPVPPEGVASFKTNFFVNGLLDLVKARACGDLRAGKPACALCPLVGGTSTGGPATARCLDCADDLCQACADGHRCTRQTHTHRVVDLVGYRAGWYDEEARERQAAQCPQHPGEALRFLCQPCSQLLCRECRLDPHLDHPCLPLAEAVRARRPGLEGLLAGVDNNLVELEAARRVEKEALARLREQAARVGTQVEEAAEGVLRALLAQKQEVLGQLRAHVEAAEEAARERLAELEGREQVARAAAAFARRVLSLGREAEILSLEGAIAQRLRQLQGCPWAPGPAPCLLPQLELHPGLLDKNCHLLRLSFEEQQPQKDGGKDGAGTQGGEESQSRREDEPKTERQGGVQPQAGDGAQTPKEEKAQTTREEGAQTLEEDRAQTPHEDGGPQPHRGGRPNKKKKFKGRLKSISREPSPALGPNLDGSGLLPRPIFYCSFPTRMPGDKRSPRITGLCPFGPREILVADEQNRALKRFSLNGDYKGTVPVPEGCSPCSVAALQSAVAFSASARLYLINPNGEVQWRRALSLSQASHAVAALPSGDRVAVSVAGHVEVYNMEGSLATRFIPGGKASRGLRALVFLTTSPQGHFVGSDWQQNSVVICDGLGQVVGEYKGPGLHGCQPGSVSVDKKGYIFLTLREVNKVVILDPKGSLLGDFLTAYHGLEKPRVTTMVDGRYLVVSLSNGTIHIFRVRSPDS
binding [2]: binds

Now from value to molecule:

binding (Myc-TRIM56): binds
Molecule: HA-ER alpha full length (from UniProt P03372 1-595)

binding [3]: binds
B2: GFP-TRIM56 full length (protein, UniProt Q9BRZ2 1-755)
chain: MVSHGSSPSLLEALSSDFLACKICLEQLRAPKTLPCLHTYCQDCLAQLADGGRVRCPECRETVPVPPEGVASFKTNFFVNGLLDLVKARACGDLRAGKPACALCPLVGGTSTGGPATARCLDCADDLCQACADGHRCTRQTHTHRVVDLVGYRAGWYDEEARERQAAQCPQHPGEALRFLCQPCSQLLCRECRLDPHLDHPCLPLAEAVRARRPGLEGLLAGVDNNLVELEAARRVEKEALARLREQAARVGTQVEEAAEGVLRALLAQKQEVLGQLRAHVEAAEEAARERLAELEGREQVARAAAAFARRVLSLGREAEILSLEGAIAQRLRQLQGCPWAPGPAPCLLPQLELHPGLLDKNCHLLRLSFEEQQPQKDGGKDGAGTQGGEESQSRREDEPKTERQGGVQPQAGDGAQTPKEEKAQTTREEGAQTLEEDRAQTPHEDGGPQPHRGGRPNKKKKFKGRLKSISREPSPALGPNLDGSGLLPRPIFYCSFPTRMPGDKRSPRITGLCPFGPREILVADEQNRALKRFSLNGDYKGTVPVPEGCSPCSVAALQSAVAFSASARLYLINPNGEVQWRRALSLSQASHAVAALPSGDRVAVSVAGHVEVYNMEGSLATRFIPGGKASRGLRALVFLTTSPQGHFVGSDWQQNSVVICDGLGQVVGEYKGPGLHGCQPGSVSVDKKGYIFLTLREVNKVVILDPKGSLLGDFLTAYHGLEKPRVTTMVDGRYLVVSLSNGTIHIFRVRSPDS
